In PMC9922277, “Repositioning Lomitapide to block ZDHHC5-dependant palmitoylation on SSTR5 leads to anti-proliferation effect in preclinical pancreatic cancer models” (Cell Death Discovery, 2023) one finds binding data, which are given here for 1 substance.

Sequences of proteins named here, by UniProt entry; tags and fusion partners are left off.
UniProt Q9C0B5: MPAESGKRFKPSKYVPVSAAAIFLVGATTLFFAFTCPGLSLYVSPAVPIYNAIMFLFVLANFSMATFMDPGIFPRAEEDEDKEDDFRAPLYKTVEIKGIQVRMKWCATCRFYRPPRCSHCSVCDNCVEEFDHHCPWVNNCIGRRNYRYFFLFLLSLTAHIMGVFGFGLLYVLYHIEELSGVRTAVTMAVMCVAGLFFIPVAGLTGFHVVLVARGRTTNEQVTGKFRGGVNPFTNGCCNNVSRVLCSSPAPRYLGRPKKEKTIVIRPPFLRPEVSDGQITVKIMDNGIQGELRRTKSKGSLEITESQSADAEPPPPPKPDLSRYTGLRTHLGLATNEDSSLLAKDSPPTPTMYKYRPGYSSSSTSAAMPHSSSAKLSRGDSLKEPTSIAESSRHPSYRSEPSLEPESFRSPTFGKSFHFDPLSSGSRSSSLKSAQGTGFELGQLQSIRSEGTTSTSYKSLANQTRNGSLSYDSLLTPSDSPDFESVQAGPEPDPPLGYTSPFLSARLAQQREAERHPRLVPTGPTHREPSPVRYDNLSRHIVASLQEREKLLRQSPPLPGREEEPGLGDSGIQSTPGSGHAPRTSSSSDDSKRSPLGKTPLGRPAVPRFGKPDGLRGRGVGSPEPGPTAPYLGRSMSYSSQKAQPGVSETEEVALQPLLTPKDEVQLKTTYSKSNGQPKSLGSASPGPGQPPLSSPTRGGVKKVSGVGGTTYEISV
UniProt P35346: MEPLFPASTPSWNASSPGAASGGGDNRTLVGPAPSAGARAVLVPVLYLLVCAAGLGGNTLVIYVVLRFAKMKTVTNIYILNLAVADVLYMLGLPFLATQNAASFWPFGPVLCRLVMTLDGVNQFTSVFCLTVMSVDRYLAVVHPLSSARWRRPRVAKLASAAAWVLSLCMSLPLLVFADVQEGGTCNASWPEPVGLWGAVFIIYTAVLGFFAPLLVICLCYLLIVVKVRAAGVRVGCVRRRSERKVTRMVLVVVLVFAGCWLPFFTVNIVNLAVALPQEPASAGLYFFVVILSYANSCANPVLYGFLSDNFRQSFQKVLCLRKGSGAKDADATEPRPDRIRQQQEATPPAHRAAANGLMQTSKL

This experiment addresses ZDHHC5 (transfected into HEK293T cells) (UniProt Q9C0B5). Nature of the experiment: co-IP; HEK293T cells transfected with SSTR5 and ZDHHC5 plasmids; IP-lysis buffer (50 mM Tris HCl pH 7.4, 150 mM NaCl, 1 mM EDTA, 1% Triton X-100), magnetic beads, 4 ug antibody or IgG; also with lomitapide treatment (inhibits their combination).

These are yes or no findings as the source states them, for the method shown. In cells and extracts the contact can be indirect. Some binding calls cover weakened binding; strength is not graded here.

Turning to “SSTR5 (transfected into HEK293T cells) (from UniProt P35346 1-364) (receptor)”, the binding entry is recorded as “binds”.
